According to patent US6949694:
No constants are given. Whether binding was seen depends on the method and setting. In cells and extracts the contact can be indirect. Some results given as binding are weak or reduced against the parent protein; the word gives no strength. Tags and fused reporters may be left off the sequences shown.

Target: T1, FY, in vitro translated from the FY encoding EST plasmid (Genbank BG459222), [35S] methionine-labelled (Arabidopsis thaliana) (UniProt Q6NLV4)
T1 sequence (chain, [35S] methionine label): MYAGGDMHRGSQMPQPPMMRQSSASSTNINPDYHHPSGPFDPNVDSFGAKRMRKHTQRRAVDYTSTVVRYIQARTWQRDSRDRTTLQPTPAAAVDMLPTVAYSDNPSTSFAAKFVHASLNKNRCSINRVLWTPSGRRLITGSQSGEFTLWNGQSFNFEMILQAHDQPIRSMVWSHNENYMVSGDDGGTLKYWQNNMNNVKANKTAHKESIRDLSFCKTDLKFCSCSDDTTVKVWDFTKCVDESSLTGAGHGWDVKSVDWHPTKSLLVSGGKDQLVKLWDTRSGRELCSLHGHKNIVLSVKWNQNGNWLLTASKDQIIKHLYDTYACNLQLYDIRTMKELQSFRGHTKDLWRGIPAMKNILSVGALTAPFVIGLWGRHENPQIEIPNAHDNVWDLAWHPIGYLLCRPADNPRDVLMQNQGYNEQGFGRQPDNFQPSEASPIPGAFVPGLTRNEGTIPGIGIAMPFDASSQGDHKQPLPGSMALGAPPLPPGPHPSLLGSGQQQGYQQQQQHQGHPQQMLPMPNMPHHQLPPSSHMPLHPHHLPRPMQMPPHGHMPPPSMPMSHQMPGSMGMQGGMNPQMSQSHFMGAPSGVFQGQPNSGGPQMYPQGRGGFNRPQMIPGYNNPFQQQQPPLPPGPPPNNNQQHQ
Test: GST in vitro pull-down of 35S-labelled in vitro translated FY

- binding: binds
B1: GST:FCA-WW (protein, Arabidopsis thaliana, UniProt O04425 580-747, looked up, not shown: a dimerising Fc or GST)
chain: QTAAPAVSQSVGSVKCTWTEHTSPDGFKYYYNGLTGESKWEKPEEMIVFEREQQKQQQHQEKPTIQQSQTQLQPLQQQPQQVQQQYQGQQLQQPFYSSLYPTPGASHNTQYPSLPVGQNSQFPMSGIGQNAQDYARTHIPVGAASMNDISRTQQSRQSPQELMWKNKA
